Test results: PubChem BioAssay AID328 (DTP/NCI, 2004)
The list is a part of this screen's results and no random one: it covers a few groups of compounds. Other doses and runs of a compound may be missing. T/C is the treated group as % of the vehicle group. For survival time, this PubChem deposit counts one and a half times the control or more as active, and values a quarter to a half above the control carry no call in these data; other NCI protocols may use other cut-offs. Schedule codes are those of the source, read here as Q, the interval in days (D) or hours (H), X, the number of doses. Some entries show no survivor count and are marked so; the dose need not have been tolerated. Some doses were run more than once; the results are listed from low to high.

Tested on: BDF1 mice, P388 leukemia ip, median survival T/C
Experiment: NCI In Vivo Anticancer Drug Screen. Data for tumor model P388 Leukemia (intraperitoneal) in B6D2F1 (BDF1) mice
Conditions: T/C endpoint: median survival time, higher T/C = longer survival
Experimental: The antitumor activity of compounds was measured in mice bearing transplantable tumors. Survival or tumor size were measured and the results are expressed as the measurement made in the treated group (T) divided by the measurement made in the vehicle treated control group (C). The tumor model used in this assay is P388 Leukemia (intraperitoneal) in B6D2F1 (BDF1) mice

`CC(=O)OCC12CCC(C)=CC1OC1C(O)C(OC(C)=O)C2(C)C12CO2` (centres undefined) was tested, and the T/C (dose: 0.13 mg/kg/injection, schedule: Q01DX001 (ip), vehicle: saline) was 109 % of control [survivor count not shown], the T/C (dose: 0.25 mg/kg/injection, schedule: Q01DX001 (ip), vehicle: saline) was 104 % of control [survivor count not shown] and the T/C (dose: 0.25 mg/kg/injection, schedule: Q01DX009 (ip), vehicle: saline) was 159 [survivor count not shown] and 195 % of control [survivor count not shown]. The T/C (dose: 0.5 mg/kg/injection, schedule: Q01DX001 (ip), vehicle: saline) was 118 % of control [survivor count not shown], the T/C (dose: 0.5 mg/kg/injection, schedule: Q01DX009 (ip), vehicle: saline) was 186 [survivor count not shown] and 225 % of control [survivor count not shown] and the T/C (dose: 0.5 mg/kg/injection, schedule: Q01DX009 (sc), vehicle: saline) was 120 % of control [survivor count not shown]. For the same compound, the T/C (dose: 0.5 mg/kg/injection, schedule: Q01DX010 (ip), vehicle: saline) was 190 % of control [survivor count not shown], the T/C (dose: 0.67 mg/kg/injection, schedule: Q01DX009 (ip), vehicle: water) was 180 [survivor count not shown] and 185 % of control [survivor count not shown] and the T/C (dose: 1.0 mg/kg/injection, schedule: Q01DX001 (ip), vehicle: saline) was 109 % of control [survivor count not shown]. For the same compound, the T/C (dose: 1.0 mg/kg/injection, schedule: Q01DX009 (ip), vehicle: saline) was 245 % of control [survivor count not shown], the T/C (dose: 1.0 mg/kg/injection, schedule: Q01DX009 (sc), vehicle: saline) was 158 % of control [survivor count not shown] and the T/C (dose: 1.0 mg/kg/injection, schedule: Q01DX010 (ip), vehicle: saline) was 219 % of control [survivor count not shown]. The T/C (dose: 1.08 mg/kg/injection, schedule: Q01DX009 (ip), vehicle: saline + alcohol) was 172 % of control [survivor count not shown], the T/C (dose: 1.25 mg/kg/injection, schedule: Q01DX009 (ip), vehicle: water) was 190 [survivor count not shown] and 220 % of control [survivor count not shown] and the T/C (dose: 1.3 mg/kg/injection, schedule: Q04DX003 (sc), vehicle: saline + alcohol) was 144 % of control [survivor count not shown]. For the same compound, the T/C (dose: 1.8 mg/kg/injection, schedule: Q01DX009 (ip), vehicle: saline + alcohol) was 184 % of control [survivor count not shown], the T/C (dose: 2.0 mg/kg/injection, schedule: Q01DX001 (ip), vehicle: saline, evaluated on day 30) was 100 % of control [survivor count not shown] and the T/C (dose: 2.0 mg/kg/injection, schedule: Q01DX001 (ip), vehicle: saline, evaluated on day 60) was 122 % of control [survivor count not shown]. The T/C (dose: 2.0 mg/kg/injection, schedule: Q01DX009 (ip), vehicle: saline) was 209 [survivor count not shown] and 245 % of control [survivor count not shown], the T/C (dose: 2.0 mg/kg/injection, schedule: Q01DX009 (sc), vehicle: saline) was 150 % of control [survivor count not shown] and the T/C (dose: 2.0 mg/kg/injection, schedule: Q01DX010 (ip), vehicle: saline) was 223 % of control [survivor count not shown]. The T/C (dose: 2.0 mg/kg/injection, schedule: Q04DX003 (ip), vehicle: saline, evaluated on day 35) was 153 % of control [survivor count not shown], the T/C (dose: 2.0 mg/kg/injection, schedule: Q04DX003 (ip), vehicle: saline, evaluated on day 60) was 127 % of control [survivor count not shown] and the T/C (dose: 2.0 mg/kg/injection, schedule: Q08DX002 (ip), vehicle: saline) was 127 % of control [survivor count not shown]. For the same compound, the T/C (dose: 2.16 mg/kg/injection, schedule: Q04DX003 (sc), vehicle: saline + alcohol) was 156 % of control [survivor count not shown], the T/C (dose: 2.5 mg/kg/injection, schedule: Q01DX009 (ip), vehicle: water) was 210 [survivor count not shown] and 220 % of control [survivor count not shown] and the T/C (dose: 2.5 mg/kg/injection, schedule: Q04DX002 (ip), vehicle: saline + alcohol) was 118 % of control [survivor count not shown]. The T/C (dose: 2.88 mg/kg/injection, schedule: Q04DX003 (ip), vehicle: saline + alcohol) was 94 [survivor count not shown] and 148 % of control [survivor count not shown], the T/C (dose: 3.0 mg/kg/injection, schedule: Q01DX009 (ip), vehicle: saline + alcohol) was 193 % of control [survivor count not shown] and the T/C (dose: 3.24 mg/kg/injection, schedule: Q04DX003 (ip), vehicle: other) was 150 % of control [survivor count not shown]. The T/C (dose: 4.0 mg/kg/injection, schedule: Q01DX001 (ip), vehicle: saline, evaluated on day 30) was 127 % of control [survivor count not shown], the T/C (dose: 4.0 mg/kg/injection, schedule: Q01DX001 (ip), vehicle: saline, evaluated on day 60) was 118 % of control [survivor count not shown] and the T/C (dose: 4.0 mg/kg/injection, schedule: Q01DX001 (oral), vehicle: saline) was 116 % of control [survivor count not shown]. The T/C (dose: 4.0 mg/kg/injection, schedule: Q01DX001 (sc), vehicle: saline) was 108 % of control [survivor count not shown], the T/C (dose: 4.0 mg/kg/injection, schedule: Q01DX009 (ip), vehicle: saline) was 95 [survivor count not shown] and 163 % of control [survivor count not shown] and the T/C (dose: 4.0 mg/kg/injection, schedule: Q04DX003 (ip), vehicle: saline, evaluated on day 60) was 110 [survivor count not shown] and 136 % of control [survivor count not shown]. For the same compound, the T/C (dose: 4.0 mg/kg/injection, schedule: Q08DX002 (ip), vehicle: saline) was 136 % of control [survivor count not shown], the T/C (dose: 4.32 mg/kg/injection, schedule: Q04DX003 (ip), vehicle: saline + alcohol) was 141 [survivor count not shown] and 142 % of control [survivor count not shown] and the T/C (dose: 4.7 mg/kg/injection, schedule: Q01DX009 (ip), vehicle: saline with Tween-80) was 214 % of control [survivor count not shown]. The T/C (dose: 4.8 mg/kg/injection, schedule: Q04DX003 (ip), vehicle: saline + alcohol) was 138 [survivor count not shown] and 153 % of control [survivor count not shown], the T/C (dose: 5.4 mg/kg/injection, schedule: Q04DX003 (ip), vehicle: other) was 117 % of control [survivor count not shown] and the T/C (dose: 7.0 mg/kg/injection, schedule: Q01DX009 (ip), vehicle: saline with Tween-80) was 102 % of control [survivor count not shown]. For the same compound, the T/C (dose: 7.2 mg/kg/injection, schedule: Q04DX003 (ip), vehicle: saline + alcohol) was 152 [survivor count not shown], 157 [survivor count not shown], 163 % of control [survivor count not shown], the T/C (dose: 8.0 mg/kg/injection, schedule: Q01DX001 (oral), vehicle: saline) was 133 % of control [survivor count not shown] and the T/C (dose: 8.0 mg/kg/injection, schedule: Q04DX003 (ip), vehicle: saline + alcohol) was 138 [survivor count not shown] and 159 % of control [survivor count not shown]. The T/C (dose: 8.0 mg/kg/injection, schedule: Q04DX003 (ip), vehicle: saline, evaluated on day 35) was 161 % of control [survivor count not shown], the T/C (dose: 8.0 mg/kg/injection, schedule: Q04DX003 (ip), vehicle: saline, evaluated on day 60) was 105 [survivor count not shown] and 150 % of control [survivor count not shown] and the T/C (dose: 8.7 mg/kg/injection, schedule: Q01DX001 (ip), vehicle: saline with Tween-80) was 124 % of control [survivor count not shown]. The T/C (dose: 9.0 mg/kg/injection, schedule: Q04DX003 (ip), vehicle: other) was 97 % of control [survivor count not shown], the T/C (dose: 10.0 mg/kg/injection, schedule: Q04DX002 (ip), vehicle: saline + alcohol) was 135 % of control [survivor count not shown] and the T/C (dose: 10.5 mg/kg/injection, schedule: Q01DX009 (ip), vehicle: saline with Tween-80) was 86 % of control [survivor count not shown]. For the same compound, the T/C (dose: 12.0 mg/kg/injection, schedule: Q04DX003 (ip), vehicle: saline + alcohol) was 144 [survivor count not shown] and 159 % of control [survivor count not shown], the T/C (dose: 13.33 mg/kg/injection, schedule: Q04DX003 (ip), vehicle: saline + alcohol) was 151 % of control [survivor count not shown] and the T/C (dose: 16.0 mg/kg/injection, schedule: Q04DX003 (ip), vehicle: saline, evaluated on day 60) was 130 % of control [survivor count not shown]. The T/C (dose: 20.0 mg/kg/injection, schedule: Q04DX003 (ip), vehicle: saline + alcohol) was 88 % of control [survivor count not shown], the T/C (dose: 62.5 micrograms/kg/injection, schedule: Q03HX008 (ip), vehicle: saline) was 127 % of control [survivor count not shown] and the T/C (dose: 62.5 micrograms/kg/injection, schedule: Q03HX016 (ip), vehicle: saline) was 136 % of control [survivor count not shown]. For the same compound, the T/C (dose: 62.5 micrograms/kg/injection, schedule: Q03HX024 (ip), vehicle: saline) was 140 % of control [survivor count not shown], the T/C (dose: 125.0 micrograms/kg/injection, schedule: Q03HX008 (ip), vehicle: saline) was 136 % of control [survivor count not shown] and the T/C (dose: 125.0 micrograms/kg/injection, schedule: Q03HX024 (ip), vehicle: saline) was 172 % of control [survivor count not shown]. The T/C (dose: 250.0 micrograms/kg/injection, schedule: Q03HX008 (ip), vehicle: saline) was 136 % of control [survivor count not shown], the T/C (dose: 250.0 micrograms/kg/injection, schedule: Q03HX016 (ip), vehicle: saline) was 163 % of control [survivor count not shown] and the T/C (dose: 500.0 micrograms/kg/injection, schedule: Q03HX008 (ip), vehicle: saline) was 136 % of control [survivor count not shown]. For the same compound, the T/C (dose: 500.0 micrograms/kg/injection, schedule: Q03HX016 (ip), vehicle: saline) was 163 % of control [survivor count not shown], the T/C (dose: 778.0 micrograms/kg/injection, schedule: Q04DX003 (ip), vehicle: saline + alcohol) was 130 % of control [survivor count not shown] and the T/C (dose: 1300.0 micrograms/kg/injection, schedule: Q04DX003 (ip), vehicle: saline + alcohol) was 163 % of control [survivor count not shown]. The T/C (dose: 2160.0 micrograms/kg/injection, schedule: Q04DX003 (ip), vehicle: saline + alcohol) was 145 % of control [survivor count not shown], the T/C (dose: 3600.0 micrograms/kg/injection, schedule: Q04DX003 (ip), vehicle: saline + alcohol) was 149 % of control [survivor count not shown] and the T/C (dose: 6000.0 micrograms/kg/injection, schedule: Q04DX003 (ip), vehicle: saline + alcohol) was 170 % of control [survivor count not shown].
